Survivor count and T/C data for 29 compounds are collected here from PubChem BioAssay AID248 (DTP/NCI, 2004).

Structures are written as SMILES. The list is a part of this screen's results and no random one: it is rich in T/C values a quarter to a half above the control, in often repeated tests (any T/C) and in doses without a T/C. Further doses and runs are listed elsewhere. T/C is the treated group as % of the vehicle group. Some doses have a count of surviving animals in place of a T/C: the source files T/C as zero there, which appears to mark a toxic dose or a test without result, not a measured value. Some survivor counts are full or nearly so, which does not show that the dose was tolerated: the source hardly ever lists a survival T/C far under the control, and the zero likely stands for such cases as well. Survivors were counted at the toxicity check, usually on the fifth day, unless a day is given; later deaths do not show. Schedule codes are those of the source, read here as Q, the interval in days (D) or hours (H), X, the number of doses. Some entries were tested several times; the values are given in rising order. Some schedule codes hold Z or #, which are not explained here. For survival time, the PubChem record calls one and a half times the control and up active, and a quarter to a half above the control has no call in these data; cut-offs in other NCI protocols can differ. Some T/C values are followed by the survivors on the day toxicity was checked, most often the fifth; where none is given, no animal had died by that day.

In the assay the test system is L1210 leukemia ip in BDF1 mice, survival T/C. In words: NCI In Vivo Anticancer Drug Screen. Data for tumor model L1210 Leukemia (intraperitoneal) in B6D2F1 (BDF1) mice. The note with it: T/C endpoint: mean survival time, higher T/C = longer survival.
[1] abbreviates: dose: 200.0 mg/kg/injection, schedule: Q04DX003 (ip), vehicle: saline.
Setting [2] is: dose: 400.0 mg/kg/injection, schedule: Q01DX001 (ip), vehicle: saline.
[3] abbreviates: dose: 400.0 mg/kg/injection, schedule: Q04DX003 (ip), vehicle: Klucel (hydroxypropylcellulose) (HPC).
[4] abbreviates: dose: 400.0 mg/kg/injection, schedule: Q01DX001 (ip), vehicle: Klucel (hydroxypropylcellulose) (HPC).
[5] abbreviates: dose: 200.0 mg/kg/injection, schedule: Q04DX003 (ip), vehicle: saline with Tween-80.
The mark [6] stands for this setting: dose: 400.0 mg/kg/injection, schedule: Q04DX003 (ip), vehicle: saline with Tween-80.
Setting [7] is: dose: 400.0 mg/kg/injection, schedule: Q04DX002 (ip), vehicle: saline with Tween-80.
[8] abbreviates: dose: 200.0 mg/kg/injection, schedule: Q01DX009 (ip), vehicle: Klucel (hydroxypropylcellulose) (HPC).
[9] abbreviates: dose: 400.0 mg/kg/injection, schedule: Q01DX009 (ip), vehicle: Klucel (hydroxypropylcellulose) (HPC).
Setting [10] is: dose: 300.0 mg/kg/injection, schedule: Q01DX001 (ip), vehicle: saline.
The mark [11] stands for this setting: dose: 300.0 mg/kg/injection, schedule: Q01DX015 (ip), vehicle: saline.

Consider `Cc1cc[n+](Cc2ccc([N+](=O)[O-])cc2)cc1`, for which the survivor count under setting [1] is 3 of 6 and the survivor count under setting [2] was 0 of 6.
For the compound `CCCCCCCCC(=O)N(CC(C)C)CC(C)C`, the survivor count by setting is: (dose: 100.0 mg/kg/injection, schedule: Q01DX009 (ip), vehicle: carboxymethylcellulose (CMC)) 3 of 3; (dose: 400.0 mg/kg/injection, schedule: Q01DX009 (ip), vehicle: carboxymethylcellulose (CMC)) 4 of 6 and 3 of 3.
Regarding `Nc1c(C(=O)O)cc(Br)c2c1C(=O)c1ccccc1C2=O`, the survivor count under setting [3] is recorded as 5 of 6.
In the case of `COc1ccccc1N=Nc1c(O)n(-c2ccccc2OC)c(=S)n(-c2ccccc2)c1=O`, the survivor count under setting [4] was 2 of 6.
For `Nc1ncnc2nc(-c3ccc(SCc4ccccc4)cc3)[nH]c12`, the survivor count reads like this: (dose: 100.0 mg/kg/injection, schedule: Q04DX002 (ip), vehicle: saline with Tween-80) 3 of 3; (dose: 100.0 mg/kg/injection, schedule: Q04DX003 (ip), vehicle: saline with Tween-80) 6 of 6; under setting [5], 6 of 6; (dose: 400.0 mg/kg/injection, schedule: Q01DX009 (ip), vehicle: saline with Tween-80) 3 of 3; under setting [6], 6 of 6.
For the compound `CCOC(=O)C1(CCCN2C(=O)c3ccccc3C2=O)CC(C(=O)OCC)(C(=O)OCC)CCC1=O` (stereo not drawn), the survivor count under setting [7] is on record as 3 of 3.
For `O=c1[nH]cnc2ncccc12`, under setting [2], the survivor count is on record as 0 of 6.
On to `CC1CN1S(=O)(=O)N1CC1C` (stereo not drawn), for which the survivor count was 1 of 4 (dose: 100.0 mg/kg/injection, schedule: Q01DX001 (ip), vehicle: carboxymethylcellulose (CMC)); 0 of 4 (dose: 200.0 mg/kg/injection, schedule: Q01DX001 (ip), vehicle: carboxymethylcellulose (CMC)); 2 of 4 (dose: 400.0 mg/kg/injection, schedule: Q01DX001 (ip), vehicle: carboxymethylcellulose (CMC)).
`O=C(OCC(Cl)(Cl)Cl)OCC(Cl)(Cl)Cl`: under setting [3], the survivor count is 4 of 6.
Turning to `O=C(O)c1cc(Cl)ccn1`, the survivor count by setting is: under setting [8], 6 of 6; under setting [9], 0 of 6.
As for `CCCCOC(=O)CC(=O)OCCCC`, the survivor count under setting [8] is listed as 3 of 6.
With `Cc1ccc(C)c(CCN)c1`, under setting [5], the survivor count was 1 of 6.
As for `C=CCC1(CCCCC)C(=O)NC(=S)NC1=O`, under setting [10], the survivor count is on record as 3 of 6.
Take `CCCCC1C(=O)OC(C(C)C(O)CCCN=C(N)N)C(C)C=C(C)CCCCC(O)CC(O)CC(O)CC(O)CC(O)C(OC2OC(CO)C(O)C2O)C=C(C)C(O)CCCC(O)CCCC(O)CCC(C)C1O` (stereo not drawn): the survivor count is 6 of 6 (dose: 1.0 mg/kg/injection, schedule: Q01DX Z (ip), vehicle: carboxymethylcellulose (CMC)); 6 of 6 (dose: 1.6 mg/kg/injection, schedule: Q01DX Z (ip), vehicle: carboxymethylcellulose (CMC)); 2 of 6 and 6 of 6 (dose: 2.5 mg/kg/injection, schedule: Q01DX Z (ip), vehicle: carboxymethylcellulose (CMC)); 0 of 6 (dose: 5.0 mg/kg/injection, schedule: Q01DX Z (ip), vehicle: carboxymethylcellulose (CMC)); 0 of 6 (dose: 10.0 mg/kg/injection, schedule: Q01DX Z (ip), vehicle: carboxymethylcellulose (CMC)); 0 of 6 (dose: 20.0 mg/kg/injection, schedule: Q01DX Z (ip), vehicle: carboxymethylcellulose (CMC)).
Turning to `COC(=O)C(C)CN1CCCC1` (stereo not drawn), the survivor count reads like this: (dose: 100.0 mg/kg/injection, schedule: Q04DX003 (ip), vehicle: saline) 3 of 6; under setting [1], 0 of 6; (dose: 400.0 mg/kg/injection, schedule: Q04DX003 (ip), vehicle: saline) 0 of 6.
Consider `O=C(O)c1ccc(-c2ccccc2)cc1`, for which the survivor count is 5 of 6 under setting [9] and 6 of 6 (dose: 400.0 mg/kg/injection, schedule: Q01DX Z (ip), vehicle: carboxymethylcellulose (CMC)).
`CCCCCCCCCCCCCCCCC/C=N\N=C(N)N`: the survivor count (dose: 240.0 mg/kg/injection, schedule: Q01DX Z (ip), vehicle: carboxymethylcellulose (CMC)) is recorded as 3 of 6 and the survivor count (dose: 480.0 mg/kg/injection, schedule: Q01DX Z (ip), vehicle: carboxymethylcellulose (CMC)) was 1 of 6.
As for `Cc1c2ccccc2c(CNCCSCCCl)c2ccc3ccccc3c12`, the survivor count is given as 3 of 6 (dose: 100.0 mg/kg/injection, schedule: Q01DX009 (ip), vehicle: saline) and 2 of 6 (dose: 500.0 mg/kg/injection, schedule: Q01DX009 (ip), vehicle: saline).
With `CCOC(=O)C(CC(=O)O)=C1c2ccccc2-c2ccccc21`, the survivor count runs as follows: under setting [4], 1 of 6; under setting [9], 0 of 3 and 1 of 6; (dose: 400.0 mg/kg/injection, schedule: Q04DX002 (ip), vehicle: Klucel (hydroxypropylcellulose) (HPC)) 0 of 3 and 0 of 6.
With `CC(C)=NC(=O)NO.[Cl][Co][Cl]`, the T/C (dose: 75.0 mg/kg/injection, schedule: Q04DX003 (ip), vehicle: saline) was 126 % of control. In addition, the survivor count was 0 of 6 (dose: 150.0 mg/kg/injection, schedule: Q01DX001 (ip), vehicle: saline); 4 of 6 (dose: 150.0 mg/kg/injection, schedule: Q04DX003 (ip), vehicle: saline); 0 of 6 under setting [10].
Take `C=C(C)CC(N)Cc1ccccc1` (stereo not drawn): the survivor count was 3 of 3 (dose: 25.0 mg/kg/injection, schedule: Q04DX002 (ip), vehicle: saline with Tween-80); 0 of 3 (dose: 200.0 mg/kg/injection, schedule: Q04DX002 (ip), vehicle: saline with Tween-80); 0 of 3 under setting [7].
Take `CCCCCOc1ccc(C(=O)/C(Br)=C/C(=O)O)cc1`: the survivor count (dose: 100.0 mg/kg/injection, schedule: Q01DX009 (ip), vehicle: saline with Tween-80) was 2 of 6.
As to `CN=C(NC)c1ccc(NC(=O)c2ccc(C(=O)Nc3ccc(C(=NC)NC)c(C)c3)cc2)cc1C`, the survivor count by setting is: (dose: 55.0 mg/kg/injection, schedule: Q01DX Z (ip), vehicle: carboxymethylcellulose (CMC)) 2 of 6; (dose: 60.0 mg/kg/injection, schedule: Q01DX Z (ip), vehicle: carboxymethylcellulose (CMC)) 2 of 6; (dose: 120.0 mg/kg/injection, schedule: Q01DX Z (ip), vehicle: carboxymethylcellulose (CMC)) 0 of 6.
As to `ClC1=C(Cl)C(Cl)(Cl)SS1`, the survivor count was 1 of 6 (dose: 150.0 mg/kg/injection, schedule: Q01DX001 (ip), vehicle: other) and 1 of 6 (dose: 300.0 mg/kg/injection, schedule: Q01DX001 (ip), vehicle: other).
Take `c1nc(Sc2ncnc3nc[nH]c23)c2[nH]cnc2n1`: the T/C is 126 % of control (dose: 75.0 mg/kg/injection, schedule: Q01DX015 (ip), vehicle: other); 137 % of control [5 of 6 alive] (dose: 150.0 mg/kg/injection, schedule: Q01DX015 (ip), vehicle: saline); 142 % of control under setting [11]; 125 % of control under setting [2]; 125 % of control (dose: 534.0 mg/kg/injection, schedule: Q01DX001 (ip), vehicle: saline); 126 % of control (dose: 800.0 mg/kg/injection, schedule: Q01DX001 (ip), vehicle: saline).
Consider `CN(CCO)Cc1ccc(Cl)cc1`, for which the survivor count under setting [11] is reported as 1 of 6.
`C[Si](C)(O[Si](C)(C)c1ccccc1)c1ccccc1`: where the note is “dose: 400.0 mg/kg/injection, schedule: Q01DX009 (ip), vehicle: saline”, the survivor count is 3 of 6.
For `CC([NH-])C[NH-].[Cl][Pd][Cl]` (stereo not drawn), for the setting “dose: 25.0 mg/kg/injection, schedule: Q04DX002 (ip), vehicle: Klucel (hydroxypropylcellulose) (HPC)”, the survivor count is 3 of 3.
`CCC(CC)OC(=O)Nc1cccc(OC(=O)NC)c1`: under setting [6], the survivor count is given as 3 of 6.
